From article PMC4891710, “Unexpected involvement of staple leads to redesign of selective bicyclic peptide inhibitor of Grb7” (Scientific Reports, 2016)
Results are given in words; binding and its absence hold for the method and conditions named. Some entries that bind do so weakly or less than the wild type. Where a sequence is shown, tags or fusion partners need not be part of it.

Legend:
[1] = target: T1, Grb7-SH2 (free, GST removed by thrombin), Q14451; assay: crystal structure; Grb7-SH2/G7-B1 complex, 1.6 A, space group P 21; phosphate in the pY binding site; crystallisation reported previously (ref. 30); both purified; details: remark: other sources report otherwise
T1 chain: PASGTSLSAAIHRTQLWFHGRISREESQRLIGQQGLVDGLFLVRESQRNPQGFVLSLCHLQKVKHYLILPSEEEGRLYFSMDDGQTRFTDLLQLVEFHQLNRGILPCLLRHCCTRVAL

[2] = target: T1, Grb7-SH2 (free, GST removed by …); assay: crystal structure; Grb7-SH2/G7-B4 complex, 2.47 A, space group P 41212; protein to peptide 1:1.5; 5% Tacsimate pH 5.0, 8% PEG 3350; malonic acid in the pY binding site; both purified; details: remark: other sources report otherwise

B1: Grb7-SH2 (free, GST removed by thrombin), Q14451 415-532 (domain or fragment)
chain: T1 chain
binding [1]: binds | binding [2]: binds
